Source: patent US4431742A, “Radioreceptor assay for benzodiazepines in saliva” (The United States of America as represented by the …, priority 1981, dated 1984)

Tested on: benzodiazepine receptor (fresh rat frontal cortex)
Experiment: recovery of benzodiazepines pre-incubated with saliva, measured by benzodiazepine radioreceptor assay
Format: binding
Settings: 100 nM diazepam, 10 mins at 37° C. with control saliva

CN1C(=O)CN=C(c2ccccc2)c2cc(Cl)ccc21 [diazepam] was tested, and the “time course and extent of reduction of binding, pre-incubated with saliva vs dissolved in buffer” value was “the same”.
